According to US8003688B2, “Method of treating symptoms of common cold, allergic rhinitis and infections relating to the respiratory tract” (ImmuPharm Aps, priority 2000, dated 2011):
Some entries share one result that the patent states for a list of compounds. At least one structure is not confirmed: it was looked up by name or label, or the drawing left a doubt.

Tested on: rhinovirus (1A, 15 or 39)
Experiment: Antiviral activity against rhinovirus in WISH cells measured via the MTS-system
Format: cell-based
Conditions: challenge virus, MTS read-out, Quercetin at levels not toxic to the cells
Procedure: Rhinovirus 1A, rhinovirus 15 and rhinovirus 39 were titrated according to the tetra zolium salt (MTS)-method (Berg et al., 1989; Berg and Owen, 2001a, Hansen et al., 1989). WISH cells were seeded in a micro tray at 3000 cells per well and incubated at 37° C., 5% CO2 overnight; the following morning the medium Was replaced with 10-fold dilutions of either rhinovirus 1A, rhinovirus 15 or rhinovirus 39, respectively, in fresh medium and the trays were incubated 4-5 days at 33° C.; a microscopical examination confirmed that the CytoPathogenic Effect (CPE) was fully developed (CPE equal to 100%). […] To quantitate the CPE in terms of % destruction, MTS (Berg and Owen, 2001a) was added to all cultures and after 3 h incubation at 37° C. (without CO2) the trays were read in a scanner as previuosly described (Berg et al, 1989, Hansen et al., 1989). […]
WISH cells were seeded in wells in a microtray and incubated for 24 h at 34° C., 5% CO2; the medium was replaced with fresh medium comprising 2-fold dilutions of ZnGluconate (diluted 1:10 from a 1% stock dilutions) and incubated further for […] at 33° C., 5% CO2; on the following day challenge virus was added and after 3-5 days at 33° C., 5% , CO2, MTS was added and the microtray was measured in an OD-scanner (Berg et al., 1989; Hansen et al., 1989). […]

C[C@@H]1O[C@@H](OC[C@H]2O[C@@H](Oc3c(-c4ccc(OCCO)c(OCCO)c4)oc4cc(OCCO)cc(O)c4c3=O)[C@H](O)[C@@H](O)[C@@H]2O)[C@H](O)[C@H](O)[C@H]1O [Troxerutin, troxerutin]
protection against rhinovirus: < 1%
